{"source": "PubChem BioAssay AID662", "about": "(National Center for Advancing Translational Sciences (NCATS), 2007)", "note": "The other results are listed elsewhere or left out. Shown are side measurements of this screen, not its main read-out; they come without a call. Compounds called inactive in the main read-out are mostly missing here. Potencies come from curve fits of mixed quality, noted in brackets."}
{"assay": "Cell signaling CRE-BLA (Fsk stim)", "conditions": "CHO CRE-bla reporter (cAMP response element driving beta-lactamase), forskolin EC10, beta-lactamase ratio; measured here: 460 nm blue channel", "how_it_was_run": "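CHO CRE-bla cells, overnight plating in Opti-MEM with 0.5% dialyzed FBS; cpd titration + EC10 NKH 477, 3 h 37 °C; CCF4 2 h RT; ex 405/em 460 vs 530 ratio → %Activity, AC50.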"}
{"compound": "N#C/C(=C\\c1ccc(O)c(O)c1)C(=O)NCCCCc1ccccc1", "AC50": "25.1 µM [falling, partial curve, poor fit]"}
{"compound": "COc1ccc2c(c1)c(=O)oc1cc(OCC(=O)N3CCCC(C)C3)ccc12", "note": "(stereo unspecified)", "AC50": "2.51 µM [rising, partial curve]"}
{"compound": "O=C(CN1C(=O)C2(OCCO2)c2ccccc21)c1ccc(Br)cc1", "AC50": "0.316 µM [rising, single point]"}
{"compound": "CCCCn1nc(C(=O)NC2=NCCS2)c2ccccc2c1=O", "AC50": "12.6 µM [rising, single point]"}
{"compound": "Cc1nnc(SCCn2c(N3CCN(c4ccccc4)CC3)nc3c2c(=O)n(C)c(=O)n3C)s1", "AC50": "20 µM [falling, single point]"}
{"compound": "Cc1ccc2[nH]c(=O)c3cc(C(=O)N4CCN(C(=O)c5ccco5)CC4)sc3c2c1", "AC50": "10 µM [rising, partial curve]"}
{"compound": "CCOc1cc(/C=C(/C#N)c2ccc(F)cc2)ccc1OCc1ccc(C(=O)O)o1", "AC50": "10 µM [falling, single point]"}
{"compound": "CCOc1ccccc1CN(Cc1ccco1)S(=O)(=O)c1ccc(-n2cnnn2)c(OC)c1", "AC50": "25.1 µM [falling, single point]"}
{"compound": "COCCn1c(=O)cnc2cnc(Nc3cccc(OC)c3)nc21", "AC50": "3.16 µM [falling, partial curve]"}
{"compound": "Cc1ccc(-n2c(C)cc(C(=O)OCC(=O)N(CC(C)C)C3CCS(=O)(=O)C3)c2C)cc1", "note": "(stereo unspecified)", "AC50": "25.1 µM [rising, single point]"}
{"compound": "Cc1ccc(CC(=O)Nc2cccc(C)n2)cc1", "AC50": "25.1 µM [falling, single point]"}
{"compound": "COCCn1c(=O)c(-c2cccs2)nc2cnc(N(C)C)nc21", "AC50": "5.01 µM [rising, partial curve]"}
{"compound": "CCN(c1ccccc1)S(=O)(=O)c1ccc2[nH]cc(C(=O)NCCOC)c(=O)c2c1", "AC50": "3.16 µM [falling, full curve]"}
{"compound": "COc1ccc(C(=O)COC(=O)CSCc2c(C)noc2C)cc1OC", "AC50": "10 µM [rising, partial curve]"}
{"compound": "Cc1ccc(O)c(-c2cc3ccccc3[nH]2)c1", "AC50": "0.316 µM [rising, partial curve]"}
{"compound": "COc1ccc(-c2nnc(NC(=O)c3ccc(S(=O)(=O)N4CCCc5ccccc54)cc3)o2)cc1", "AC50": "10 µM [falling, single point]"}
{"compound": "CCc1nnc(NC(=O)CSc2nc3cccnc3n2C2CCCCC2)s1", "AC50": "12.6 µM [rising, single point]"}
{"compound": "Cc1cc(C)n(-c2nc(NCC3CCCO3)c3c4c(sc3n2)COC(C)(C)C4)n1", "note": "(stereo unspecified)", "AC50": "3.98 µM [rising, full curve]"}
{"compound": "COC(=O)c1ccc(NC(=O)CN2C(=O)CCC2=O)cc1", "AC50": "3.98 µM [falling, single point]"}
{"compound": "CCNc1ncc2nc(-c3ccc(F)cc3)c(=O)n(-c3ccccc3)c2n1", "AC50": "3.16 µM [rising, partial curve]"}
{"compound": "Cc1ccc2[nH]c(=O)c(CN(CCCN3CCOCC3)C(=O)Nc3cccc(Cl)c3)cc2c1", "AC50": "12.6 µM [rising, partial curve]"}
{"compound": "CC(=O)Nc1cc(C(=O)N2CCCC2)ccc1S(=O)(=O)c1ccc(C)cc1", "AC50": "0.00398 µM [falling, full curve, poor fit]"}
{"compound": "CCOC(=O)c1c(NC(=O)C2CCN(S(=O)(=O)c3cccs3)CC2)sc(C)c1C", "AC50": "1 µM [rising, full curve, poor fit]"}
{"compound": "Nc1ncn(C(=O)c2ccco2)n1", "AC50": "1.58 µM [falling, full curve]"}
{"compound": "Cc1cc(C)c(NC(=O)Cn2c(=O)n(Cc3ccco3)c(=O)c3ccccc32)c(C)c1", "AC50": "0.158 µM [falling, full curve, poor fit]"}
{"compound": "CCN(CC)S(=O)(=O)c1ccc2c(c1)c(=O)c(C(=O)NCCN(C)CCc1ccccc1)cn2C", "AC50": "12.6 µM [rising, partial curve]"}
{"compound": "Cc1nc2cc(C(=O)OCC(=O)N(CC(C)C)C3CCS(=O)(=O)C3)ccc2n1-c1ccccc1", "note": "(stereo unspecified)", "AC50": "10 µM [rising, partial curve]"}
{"compound": "COc1cccc(Nc2ncc3ncc(=O)n(CCC#N)c3n2)c1", "AC50": "12.6 µM [rising, single point]"}
{"compound": "CCOc1cccc(/C(O)=C2/C(=O)C(=O)N(Cc3ccco3)C2c2ccncc2)c1", "note": "(stereo unspecified)", "AC50": "0.0251 µM [falling, full curve, poor fit]"}
{"compound": "CCOC(=O)C1=C(C)Nc2nc(C)nn2C1c1ccc(OC)c(OC)c1", "note": "(stereo unspecified)", "AC50": "10 µM [rising, partial curve]"}
{"compound": "Cc1ccccc1-c1ccc2ncnc(N(C)C)c2c1", "AC50": "25.1 µM [rising, single point]"}
{"compound": "Cc1cc(C)n(-c2nnc3n2N=C(c2ccccc2)CS3)n1", "AC50": "3.16 µM [rising, single point]"}
{"compound": "COc1ccc(NC(=O)CCc2nc(-c3ccc(C)cc3)no2)c(OC)c1", "AC50": "2 µM [falling, full curve, poor fit]"}
{"compound": "CC1=CC(C)(C)N2C(=O)C3(C(C#N)=C(N)Oc4cc(O)ccc43)c3cccc1c32", "note": "(stereo unspecified)", "AC50": "2 µM [rising, full curve]"}
{"compound": "Cc1noc(NS(=O)(=O)c2cccc3c(N(C)C)cccc23)c1C", "AC50": "0.000794 µM [falling, full curve, poor fit]"}
{"compound": "Cc1cc(C(=O)OCC(=O)c2c(N)n(C)c(=O)n(C)c2=O)c(C)n1-c1ccccc1", "AC50": "10 µM [rising, single point]"}
{"compound": "Cc1ccc(NC(=O)C2CCCN(S(=O)(=O)c3cccs3)C2)cc1", "note": "(stereo unspecified)", "AC50": "0.1 µM [falling, single point]"}
{"compound": "CCC(c1nnnn1Cc1ccco1)N(CCN1CCOCC1)Cc1cc2cc(C)ccc2[nH]c1=O", "note": "(stereo unspecified)", "AC50": "25.1 µM [falling, single point]"}
{"compound": "CCN1CCN(c2oc(COc3ccc(-c4ccccc4)cc3)nc2C#N)CC1", "AC50": "20 µM [rising, single point]"}
{"compound": "Cn1c(=O)c2c(nc(NCCc3ccccc3)n2Cc2ccc(F)cc2)n(C)c1=O", "AC50": "5.01 µM [rising, partial curve]"}
{"compound": "COCCOC(=O)c1c(C)oc2ccc(NS(=O)(=O)c3ccc(F)cc3)cc12", "AC50": "10 µM [rising, partial curve]"}
{"compound": "Cc1c(NC(=O)c2c(F)cccc2F)c(=O)n(-c2ccccc2)n1C", "AC50": "0.0794 µM [falling, full curve]"}
{"compound": "CCOC(=O)C1=C(C)NC(SCC(=O)O)=NC1c1ccccc1", "note": "(stereo unspecified)", "AC50": "12.6 µM [rising, single point]"}
{"compound": "CCCc1cc(=O)[nH]c(SCCOc2ccc(Cl)cc2)n1", "AC50": "25.1 µM [rising, single point]"}
{"compound": "Cc1cc2nc(-c3ccc(NC(=O)c4cccnc4)cc3)oc2cc1C", "AC50": "0.126 µM [falling, single point]"}
{"compound": "COC(=O)C1=C(N)Oc2cc(C)n(CC3CCCO3)c(=O)c2C1c1ccccc1", "note": "(stereo unspecified)", "AC50": "3.98 µM [falling, partial curve]"}
{"compound": "N#Cc1ccccc1Cn1c(=O)n(Cc2ccc(C(=O)NCc3ccco3)cc2)c(=O)c2ccccc21", "AC50": "12.6 µM [rising, single point]"}
{"compound": "CCOC(=O)c1cc2sccc2n1CC(=O)c1ccc2c(c1)OCCO2", "AC50": "10 µM [falling, partial curve]"}
{"compound": "COc1ccc(-n2c(Cc3cccn3C)nnc2SCC(=O)Nc2cc(C)cc(C)c2)cc1", "AC50": "15.8 µM [falling, single point]"}
{"compound": "COc1ccc(C2CC(=O)C3=C(C2)Nc2ncnn2C3c2ccccc2C)c(OC)c1", "note": "(stereo unspecified)", "AC50": "10 µM [rising, single point]"}
{"compound": "Cc1noc(C)c1-c1ccc2ncnc(NCc3cccs3)c2c1", "AC50": "2.51 µM [rising, full curve]"}
{"compound": "COc1cc(C#N)ccc1OCC(=O)c1ccc2c(c1)OCCO2", "AC50": "0.631 µM [falling, partial curve, poor fit]"}
{"compound": "CN(C)c1nc(SCC#N)nc(N(C)C)n1", "AC50": "12.6 µM [rising, single point]"}
{"compound": "O=C(CSc1ccc2nnc(-c3ccccn3)n2n1)NCC1CCCO1", "note": "(stereo unspecified)", "AC50": "10 µM [rising, single point]"}
{"compound": "COc1ccc(Cn2c(C3CC3)nc3ccc(NC(=O)c4ccco4)cc3c2=O)cc1", "AC50": "12.6 µM [rising, partial curve]"}
{"compound": "CCOc1ccccc1C1CC(=O)Nc2cc3c(cc21)OCO3", "note": "(stereo unspecified)", "AC50": "12.6 µM [rising, single point]"}
{"compound": "Cc1cc(C)n(-c2ccc(C(=O)NCc3cccs3)cc2)n1", "AC50": "0.0251 µM [rising, full curve, poor fit]"}
{"compound": "CCOc1cccc2cc(-c3csc(NC(=O)CCC(=O)N4CCN(C)CC4)n3)c(=O)oc12", "AC50": "0.631 µM [rising, full curve]"}
{"compound": "Cc1cc(C)n(-c2ccc(F)cc2)c(=O)c1C(=O)O", "AC50": "0.398 µM [falling, full curve]"}
{"compound": "Cc1cc(CN2CCN(CCC#N)CC2)c(O)c(C2(C)CCCCC2)c1", "AC50": "10 µM [falling, partial curve]"}
{"compound": "CCOCCOc1nc2c(c(=O)n(C)c(=O)n2C)n1Cc1ccc(C)cc1", "AC50": "2.51 µM [rising, full curve]"}
{"compound": "CNc1nc(-c2ccc(C(=O)N(C)C)cc2)nc2ccccc12", "AC50": "10 µM [rising, single point]"}
{"compound": "O=C(N1CCN(c2ccccc2)CC1)C(F)(F)C(F)(F)F", "AC50": "0.794 µM [falling, full curve, poor fit]"}
{"compound": "CCn1c2ccccc2c2nnc(SCC(=O)N3CC(C)OC(C)C3)nc21", "note": "(stereo unspecified)", "AC50": "10 µM [rising, partial curve]"}
{"compound": "COCCCn1c(SCC(=O)Nc2nnc(C)s2)nnc1-c1ccoc1C", "AC50": "25.1 µM [rising, single point]"}
{"compound": "CCS(=O)(=O)N1CCC(C(=O)NCc2ccccn2)CC1", "AC50": "0.00794 µM [falling, full curve, poor fit]"}
